# From the supplement of paper PMC8728848
# The list shows a part of the results.
# B1: Mnn9-2N3 (Aspergillus fumigatus) (protein)
# chain: MAVARRMRRTNPITLLLAAILAIGFFIFVLSPSTTSASPVKAGSASSSSTSQQRREDNAAENPLSPPTKPFFKSQPVRHDGQQAPPPVVQYNLNQLSSTSTSAANGERILILTPMARFVPEYWDNVVKLTYPHELISIGFIIPKNKEGNAALAALEAAIAKTQSGPIDKRFASISILRQDFEPPLQSQDEKERHKISNQKARRESMSRARNSLLFTTLGPATAWVLWLDADIVETPPTLIQDLTAHDHPVLVPNCYQRYYNSEKKKMDVRPYDYNSWIDSSTAQSMAAEMGPDEILLEGYAEMPTYRTLMAHLADTANPNPKKVIELDGVGGTALMVKAEVHRDGAMFPAFPFYHLVETEGFAKMAKRLGYSVYGLPDYFVSRNFFFFFFFFFFG
# Legend:
# Experiment in all cases: glycan array binding signal (z-score within array); higher = stronger binding
# Conditions in all cases: glycan notation: IUPAC condensed, linker removed
# [1] = biological target: Gal(b1-4)GlcNAc(b1-3)Gal(b1-4)GlcNAc(b1-3)Gal(b1-4)GlcNAc(b1-2)Man(a1-3)[Gal(b1-4)GlcNAc(b1-3)Gal(b1-4)GlcNAc(b1-3)Gal(b1-4)GlcNAc(b1-2)Man(a1-6)]Man(b1-4)GlcNAc(b1-4)GlcNAc
# Outline: (§1)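 The Consortium for Functional Glycomics database supplied 3228 glycan arrays, of which those lacking an available protein sequence were dropped. The binding signal, a within-array Z-score, was averaged across arrays of the same protein sequence and across linkers. Negative scores can be read as non-binding.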
# [2] = biological target: Gal(b1-4)GlcNAc(b1-3)Gal(b1-4)GlcNAc(b1-3)Gal(b1-4)GlcNAc(b1-2)Man(a1-3)[Gal(b1-4)GlcNAc(b1-3)Gal(b1-4)GlcNAc(b1-3)Gal(b1-4)GlcNAc(b1-2)Man(a1-6)]Man(b1-4)GlcNAc(b1-4)[Fuc(a1-6)]GlcNAc
# Outline: as §1
# [3] = biological target: Gal(b1-4)GlcNAc(b1-3)Gal(b1-4)GlcNAc(b1-3)Gal(b1-4)GlcNAc(b1-2)[Gal(b1-4)GlcNAc(b1-3)Gal(b1-4)GlcNAc(b1-3)Gal(b1-4)GlcNAc(b1-6)]Man(a1-6)[Gal(b1-4)GlcNAc(b1-3)Gal(b1-4)GlcNAc(b1-3)Gal(b1-4)GlcNAc(b1-2)Man(a1-3)]Man(b1-4)GlcNAc(b1-4)[Fuc(a1-6)]GlcNAc
# Outline: as §1
# [4] = biological target: Gal(b1-4)GlcNAc(b1-3)Gal(b1-4)GlcNAc(b1-3)Gal(b1-4)GlcNAc(b1-3)Gal(b1-4)GlcNAc(b1-2)Man(a1-3)[Gal(b1-4)GlcNAc(b1-3)Gal(b1-4)GlcNAc(b1-3)Gal(b1-4)GlcNAc(b1-3)Gal(b1-4)GlcNAc(b1-2)Man(a1-6)]Man(b1-4)GlcNAc(b1-4)GlcNAc
# Outline: as §1
# [5] = biological target: Gal(b1-4)GlcNAc(b1-3)Gal(b1-4)GlcNAc(b1-3)Gal(b1-4)GlcNAc(b1-3)Gal(b1-4)GlcNAc(b1-2)Man(a1-3)[Gal(b1-4)GlcNAc(b1-3)Gal(b1-4)GlcNAc(b1-3)Gal(b1-4)GlcNAc(b1-3)Gal(b1-4)GlcNAc(b1-2)Man(a1-6)]Man(b1-4)GlcNAc(b1-4)[Fuc(a1-6)]GlcNAc
# Outline: as §1
# [6] = biological target: Gal(b1-4)GlcNAc(b1-3)Gal(b1-4)GlcNAc(b1-3)Gal(b1-4)GlcNAc(b1-3)Gal(b1-4)GlcNAc(b1-2)[Gal(b1-4)GlcNAc(b1-3)Gal(b1-4)GlcNAc(b1-3)Gal(b1-4)GlcNAc(b1-3)Gal(b1-4)GlcNAc(b1-6)]Man(a1-6)[Gal(b1-4)GlcNAc(b1-3)Gal(b1-4)GlcNAc(b1-3)Gal(b1-4)GlcNAc(b1-3)Gal(b1-4)GlcNAc(b1-2)Man(a1-3)]Man(b1-4)GlcNAc(b1-4)[Fuc(a1-6)]GlcNAc
# Outline: as §1
# [7] = biological target: Gal(b1-4)GlcNAc(b1-3)Gal(b1-4)GlcNAc(b1-3)Gal(b1-4)GlcNAc(b1-3)Gal(b1-4)GlcNAc(b1-3)Gal(b1-4)GlcNAc(b1-2)Man(a1-3)[Gal(b1-4)GlcNAc(b1-3)Gal(b1-4)GlcNAc(b1-3)Gal(b1-4)GlcNAc(b1-3)Gal(b1-4)GlcNAc(b1-3)Gal(b1-4)GlcNAc(b1-2)Man(a1-6)]Man(b1-4)GlcNAc(b1-4)GlcNAc
# Outline: as §1
# [8] = biological target: Gal(b1-4)GlcNAc(b1-3)Gal(b1-4)GlcNAc(b1-3)Gal(b1-4)GlcNAc(b1-3)Gal(b1-4)GlcNAc(b1-3)Gal(b1-4)GlcNAc(b1-2)Man(a1-3)[Gal(b1-4)GlcNAc(b1-3)Gal(b1-4)GlcNAc(b1-3)Gal(b1-4)GlcNAc(b1-3)Gal(b1-4)GlcNAc(b1-3)Gal(b1-4)GlcNAc(b1-2)Man(a1-6)]Man(b1-4)GlcNAc(b1-4)[Fuc(a1-6)]GlcNAc
# Outline: as §1
# [9] = biological target: Gal(b1-4)GlcNAc(b1-3)Gal(b1-4)GlcNAc(b1-3)Gal(b1-4)GlcNAc(b1-3)Gal(b1-4)GlcNAc(b1-3)Gal(b1-4)GlcNAc(b1-2)[Gal(b1-4)GlcNAc(b1-3)Gal(b1-4)GlcNAc(b1-3)Gal(b1-4)GlcNAc(b1-3)Gal(b1-4)GlcNAc(b1-3)Gal(b1-4)GlcNAc(b1-6)]Man(a1-6)[Gal(b1-4)GlcNAc(b1-3)Gal(b1-4)GlcNAc(b1-3)Gal(b1-4)GlcNAc(b1-3)Gal(b1-4)GlcNAc(b1-3)Gal(b1-4)GlcNAc(b1-2)Man(a1-3)]Man(b1-4)GlcNAc(b1-4)[Fuc(a1-6)]GlcNAc
# Outline: as §1
# [10] = biological target: Gal(b1-4)GlcNAc(b1-3)Gal(b1-4)GlcNAc(b1-3)Gal(b1-4)GlcNAc(b1-3)Gal(b1-4)GlcNAc(b1-3)Gal(b1-4)GlcNAc(b1-3)Gal(b1-4)GlcNAc(b1-2)Man(a1-3)[Gal(b1-4)GlcNAc(b1-3)Gal(b1-4)GlcNAc(b1-3)Gal(b1-4)GlcNAc(b1-3)Gal(b1-4)GlcNAc(b1-3)Gal(b1-4)GlcNAc(b1-3)Gal(b1-4)GlcNAc(b1-2)Man(a1-6)]Man(b1-4)GlcNAc(b1-4)GlcNAc
# Outline: as §1
# [11] = biological target: Gal(b1-4)GlcNAc(b1-3)Gal(b1-4)GlcNAc(b1-3)GalNAc
# Outline: as §1
# [12] = biological target: Gal(b1-4)GlcNAc(b1-3)Gal(b1-4)GlcNAc(b1-3)[Gal(b1-4)GlcNAc(b1-3)Gal(b1-4)GlcNAc(b1-6)]GalNAc
# Outline: as §1
# [13] = biological target: Gal(b1-4)GlcNAc(b1-3)Gal(b1-4)GlcNAc(b1-6)[Gal(b1-3)]GalNAc
# Outline: as §1
# [14] = biological target: Gal(b1-4)GlcNAc(b1-3)Gal(b1-4)[Fuc(a1-3)]GlcNAc(b1-3)Gal(b1-4)[Fuc(a1-3)]GlcNAc
# Outline: as §1
# [15] = biological target: Gal(b1-4)GlcNAc(b1-3)GalNAc
# Outline: as §1
# [16] = biological target: Gal(b1-4)GlcNAc(b1-3)[Fuc(a1-3)GlcNAc(b1-6)]Gal(b1-4)Glc
# Outline: as §1
# [17] = biological target: Gal(b1-4)GlcNAc(b1-3)[Gal(b1-4)GlcNAc(b1-6)]Gal(b1-4)GlcNAc
# Outline: as §1
# [18] = biological target: Gal(b1-4)GlcNAc(b1-3)[GlcNAc(b1-6)]Gal(b1-4)GlcNAc
# Outline: as §1
# [19] = biological target: Gal(b1-4)GlcNAc(b1-6)Gal(b1-4)GlcNAc
# Outline: as §1
binder,measurement,setting,value
B1,glycan array binding signal (z-score),[1],0.904
same,glycan array binding signal (z-score),[2],0.388
same,glycan array binding signal (z-score),[3],0.946
same,glycan array binding signal (z-score),[4],0.632
same,glycan array binding signal (z-score),[5],0.427
same,glycan array binding signal (z-score),[6],1.27
same,glycan array binding signal (z-score),[7],0.483
same,glycan array binding signal (z-score),[8],-1.85
same,glycan array binding signal (z-score),[9],-0.091
same,glycan array binding signal (z-score),[10],0.92
same,glycan array binding signal (z-score),[11],-0.366
same,glycan array binding signal (z-score),[12],0.581
same,glycan array binding signal (z-score),[13],-1.14
same,glycan array binding signal (z-score),[14],0.024
same,glycan array binding signal (z-score),[15],-0.932
same,glycan array binding signal (z-score),[16],0.135
same,glycan array binding signal (z-score),[17],-0.266
same,glycan array binding signal (z-score),[18],0.182
same,glycan array binding signal (z-score),[19],-1.83

# A second format for part of the listing above:
binder	measurement	setting	value
B1	glycan array binding signal (z-score)	[10]	0.92
same	glycan array binding signal (z-score)	[18]	0.182
